Measurements taken from publication PMC4406087, “Remaining challenges in cellular flavin cofactor homeostasis and flavoprotein biogenesis” (Frontiers in Chemistry, 2015).

The chains behind the UniProt entries cited, without tags or fusion partners. Where a name states a change or a piece, a line headed by the entry shows the natural chain unless it says otherwise. Residues count along the entry.
UniProt Q63342: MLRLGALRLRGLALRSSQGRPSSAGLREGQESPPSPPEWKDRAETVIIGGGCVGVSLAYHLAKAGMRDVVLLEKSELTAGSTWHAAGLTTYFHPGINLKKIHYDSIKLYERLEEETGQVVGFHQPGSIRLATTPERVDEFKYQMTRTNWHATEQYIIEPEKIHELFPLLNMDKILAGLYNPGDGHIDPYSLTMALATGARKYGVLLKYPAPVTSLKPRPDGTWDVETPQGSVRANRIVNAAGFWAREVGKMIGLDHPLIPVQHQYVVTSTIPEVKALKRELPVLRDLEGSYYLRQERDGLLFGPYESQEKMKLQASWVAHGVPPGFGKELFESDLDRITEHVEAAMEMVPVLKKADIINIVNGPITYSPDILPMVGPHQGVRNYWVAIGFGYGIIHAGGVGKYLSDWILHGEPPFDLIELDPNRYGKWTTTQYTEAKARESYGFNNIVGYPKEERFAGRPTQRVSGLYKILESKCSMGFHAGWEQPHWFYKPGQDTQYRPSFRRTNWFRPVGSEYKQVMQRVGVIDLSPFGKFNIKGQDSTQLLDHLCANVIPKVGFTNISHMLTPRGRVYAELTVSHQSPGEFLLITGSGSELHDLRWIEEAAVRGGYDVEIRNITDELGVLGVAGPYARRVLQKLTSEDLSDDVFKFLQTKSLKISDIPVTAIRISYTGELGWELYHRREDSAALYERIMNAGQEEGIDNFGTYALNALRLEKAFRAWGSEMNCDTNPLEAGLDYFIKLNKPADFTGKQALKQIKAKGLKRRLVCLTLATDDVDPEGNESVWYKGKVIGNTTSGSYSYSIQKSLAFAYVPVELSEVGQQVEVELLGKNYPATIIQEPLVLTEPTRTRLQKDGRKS
UniProt P26772: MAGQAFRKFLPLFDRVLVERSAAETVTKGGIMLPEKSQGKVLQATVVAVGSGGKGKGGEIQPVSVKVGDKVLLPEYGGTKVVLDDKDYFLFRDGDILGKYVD
UniProt P63039, residues 27-573: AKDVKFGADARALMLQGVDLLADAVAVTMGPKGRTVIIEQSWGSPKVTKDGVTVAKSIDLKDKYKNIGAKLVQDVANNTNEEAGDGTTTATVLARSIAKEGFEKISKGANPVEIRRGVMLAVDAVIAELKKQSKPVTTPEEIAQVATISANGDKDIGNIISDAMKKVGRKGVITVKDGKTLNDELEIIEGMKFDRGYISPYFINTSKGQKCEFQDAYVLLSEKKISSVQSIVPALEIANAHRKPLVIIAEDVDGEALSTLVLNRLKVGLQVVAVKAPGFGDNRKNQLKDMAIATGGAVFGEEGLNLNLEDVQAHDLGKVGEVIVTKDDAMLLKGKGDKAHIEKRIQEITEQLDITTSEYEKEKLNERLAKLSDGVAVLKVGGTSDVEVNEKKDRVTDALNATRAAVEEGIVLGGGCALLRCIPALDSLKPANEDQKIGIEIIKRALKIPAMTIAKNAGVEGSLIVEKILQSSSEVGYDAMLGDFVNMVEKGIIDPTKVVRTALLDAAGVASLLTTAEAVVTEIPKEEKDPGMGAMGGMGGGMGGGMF

Target: recombinant 6His-apo-Me2GlyDH of the re-binding experiment (rat) (UniProt Q63342)
Assay: pull-down; 6His-apo-Me2GlyDH (10 μg) incubated 1 h at 37°C in 50 mM Tris-HCl pH 7.5, 5 mM MgCl2, 0.5% Triton X-100, 5 mM ATP, 20 μM FAD with rat liver mitochondrial matrix or its DEAE fractions (100 μg); re-isolated on Ni-Chelating Sepharose, washed with 50 mM imidazole, eluted with 500 mM …; immunoblot with anti-Hsp60 and anti-Hsp10; only the target purified

Substance: Hsp10 of rat liver mitochondrial matrix (from UniProt P26772 1-102)
- binding: binds

Substance: Hsp60 of rat liver mitochondrial matrix (from UniProt P63039 27-573)
- binding: binds

No constants are given. Whether binding was seen depends on the method and setting. Binding seen in cells or lysates may run through a third protein. Binding can be weak; no strength is given.
